From US7608615B2, “Pyrrolo[2,1-C][1,4]benzodiazepine hybrids and a process for the preparation thereof” (Council of Scientific & Industrial Research, priority 2006, dated 2009)
Some results were stated once for a whole list of compounds, not compound by compound.

Test system: human cancer cell lines
Experiment: in vitro cytotoxicity in selected human cancer cell lines (panel statement)
Assay type: cell-based
Conditions: at μg/mL concentration in some cell lines

SMILES | cell growth
COc1cc2c(cc1OCCCn1c(=O)nc(-c3ccccc3)c3cc(Cl)ccc31)N=C[C@@H]1CCCN1C2=O [Compound 5d, 7-Methoxy-8-[3-(6-chloro-2-oxo-4-phenyl-1,2-dihydro-1-quinazolinyl)propoxy]-(11aS)-1,2,3,11a-tetrahydro-5H-pyrrolo[2,1-c][1,4]benzodiazepine-5-one] | less than 20%
COc1cc2c(cc1OCCCCCn1c(=O)nc(-c3ccccc3)c3cc(Cl)ccc31)N=C[C@@H]1CCCN1C2=O [Compound 5f, 7-Methoxy-8-[5-(6-chloro-2-oxo-4-phenyl-1,2-dihydro-1-quinazolinyl)pentyloxy]-(11aS)-1,2,3,11a-tetrahydro-5H-pyrrolo[2,1-c][1,4]benzodiazepine-5-one] | less than 20%
